Test results as given in the supplement of paper PMC8728848.
This is one part of the list.

Experiments:
Assay in all cases: glycan array binding signal (z-score within array); higher = stronger binding
Details in all cases: glycan notation: IUPAC condensed, linker removed
[1] = molecular target: Gal(b1-4)GlcNAc(b1-2)[Gal(b1-4)GlcNAc(b1-4)]Man(a1-3)[Gal(b1-4)GlcNAc(b1-2)Man(a1-6)]Man(b1-4)GlcNAc(b1-4)GlcNAc
In short: (§1)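 Negative Z-scores can be read as non-binding. The Z-score is calculated within each array and then averaged across arrays of one protein sequence at different concentrations or buffers and across linkers. Arrays, 3228 in all, were curated from the Consortium for Functional Glycomics database and kept only where the protein sequence was available.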

[2] = molecular target: Gal(b1-4)GlcNAc(b1-2)[Gal(b1-4)GlcNAc(b1-4)]Man(a1-3)[Gal(b1-4)GlcNAc(b1-2)[Gal(b1-4)GlcNAc(b1-6)]Man(a1-6)]Man(b1-4)GlcNAc(b1-4)GlcNAc
In short: as §1

[3] = molecular target: Gal(b1-4)GlcNAc(b1-2)[Gal(b1-4)GlcNAc(b1-4)]Man(a1-3)[GlcNAc(b1-4)][Gal(b1-4)GlcNAc(b1-2)Man(a1-6)]Man(b1-4)GlcNAc(b1-4)GlcNAc
In short: as §1

[4] = molecular target: Gal(b1-4)GlcNAc(b1-2)[Gal(b1-4)GlcNAc(b1-4)]Man(a1-3)[GlcNAc(b1-4)][Gal(b1-4)GlcNAc(b1-2)[Gal(b1-4)GlcNAc(b1-6)]Man(a1-6)]Man(b1-4)GlcNAc(b1-4)GlcNAc
In short: as §1

[5] = molecular target: Gal(b1-4)GlcNAc(b1-2)[Gal(b1-4)GlcNAc(b1-6)]Man(a1-6)[Gal(b1-4)GlcNAc(b1-2)Man(a1-3)]Man(b1-4)GlcNAc(b1-4)GlcNAc
In short: as §1

[6] = molecular target: Gal(b1-4)GlcNAc(b1-2)[Gal(b1-4)GlcNAc(b1-6)]Man(a1-6)[Gal(b1-4)GlcNAc(b1-2)Man(a1-3)]Man(b1-4)GlcNAc(b1-4)[Fuc(a1-6)]GlcNAc
In short: as §1

[7] = molecular target: Gal(b1-4)GlcNAc(b1-2)[Gal(b1-4)GlcNAc(b1-6)]Man(a1-6)[GlcNAc(b1-4)][Gal(b1-4)GlcNAc(b1-2)Man(a1-3)]Man(b1-4)GlcNAc(b1-4)GlcNAc
In short: as §1

[8] = molecular target: Gal(b1-4)GlcNAc(b1-2)[Gal(b1-4)GlcNAc(b1-6)]Man(a1-6)[GlcNAc(b1-4)][Gal(b1-4)GlcNAc(b1-2)[Gal(b1-4)GlcNAc(b1-4)]Man(a1-3)]Man(b1-4)GlcNAc(b1-4)[Fuc(a1-6)]GlcNAc
In short: as §1

[9] = molecular target: Gal(b1-4)GlcNAc(b1-3)Gal(b1-3)GalNAc
In short: as §1

[10] = molecular target: Gal(b1-4)GlcNAc(b1-3)Gal(b1-3)GlcNAc
In short: as §1

[11] = molecular target: Gal(b1-4)GlcNAc(b1-3)Gal(b1-4)Glc
In short: as §1

[12] = molecular target: Gal(b1-4)GlcNAc(b1-3)Gal(b1-4)GlcNAc
In short: as §1

[13] = molecular target: Gal(b1-4)GlcNAc(b1-3)Gal(b1-4)GlcNAc(b1-2)Man(a1-3)[Gal(b1-4)GlcNAc(b1-3)Gal(b1-4)GlcNAc(b1-2)Man(a1-6)]Man(b1-4)GlcNAc(b1-4)GlcNAc
In short: as §1

[14] = molecular target: Gal(b1-4)GlcNAc(b1-3)Gal(b1-4)GlcNAc(b1-2)Man(a1-3)[Gal(b1-4)GlcNAc(b1-3)Gal(b1-4)GlcNAc(b1-2)Man(a1-6)]Man(b1-4)GlcNAc(b1-4)[Fuc(a1-6)]GlcNAc
In short: as §1

[15] = molecular target: Gal(b1-4)GlcNAc(b1-3)Gal(b1-4)GlcNAc(b1-2)[Gal(b1-4)GlcNAc(b1-3)Gal(b1-4)GlcNAc(b1-6)]Man(a1-6)[Gal(b1-4)GlcNAc(b1-3)Gal(b1-4)GlcNAc(b1-2)Man(a1-3)]Man(b1-4)GlcNAc(b1-4)GlcNAc
In short: as §1

[16] = molecular target: Gal(b1-4)GlcNAc(b1-3)Gal(b1-4)GlcNAc(b1-2)[Gal(b1-4)GlcNAc(b1-3)Gal(b1-4)GlcNAc(b1-6)]Man(a1-6)[Gal(b1-4)GlcNAc(b1-3)Gal(b1-4)GlcNAc(b1-2)Man(a1-3)]Man(b1-4)GlcNAc(b1-4)[Fuc(a1-6)]GlcNAc
In short: as §1

[17] = molecular target: Gal(b1-4)GlcNAc(b1-3)Gal(b1-4)GlcNAc(b1-3)Gal(b1-4)GlcNAc
In short: as §1

[18] = molecular target: Gal(b1-4)GlcNAc(b1-3)Gal(b1-4)GlcNAc(b1-3)Gal(b1-4)GlcNAc(b1-2)Man(a1-3)[Gal(b1-4)GlcNAc(b1-3)Gal(b1-4)GlcNAc(b1-3)Gal(b1-4)GlcNAc(b1-2)Man(a1-6)]Man(b1-4)GlcNAc(b1-4)GlcNAc
In short: as §1

B1: FliC (Clostridium difficile) (protein)
chain: MRVNTNVSALIANNQMGRNVNGQSKSMEKLSSGVRIKRAADDAAGLAISEKMRAQIKGLDQAGRNVQDGISVVQTAEGSLEETGNILQRMRTLSLQSANEINNTEEREKIADELTQLKDEIERISSSTEFNGKKLLDGTSSTIRLQVGASYGTNVSGTSNNNNEIKIQLVNTASIMASAGITTASIGSMKAGGTTGTDAAKTMVSSLDAALKSLNSSRAKLGAQQNRLESTQNNLNNTLENVTAAESRIRDTDVASEMVNLSKMNILVQASQSMLAQANQQPQGVLQLLG
**Q.** How did the “glycan array binding signal (z-score)” value [1] turn out when B1 was run?
**A.** -0.513

**Q.** And the “glycan array binding signal (z-score)” value [2]?
**A.** 0.193

**Q.** And the “glycan array binding signal (z-score)” value [3]?
**A.** -0.113

**Q.** What about the “glycan array binding signal (z-score)” value [4] of the same binder?
**A.** 0.207

**Q.** What about the “glycan array binding signal (z-score)” value [5] of the same binder?
**A.** 0.587

**Q.** And the “glycan array binding signal (z-score)” value [6]?
**A.** 0.28

**Q.** And the “glycan array binding signal (z-score)” value [7]?
**A.** 0.329

**Q.** What about the “glycan array binding signal (z-score)” value [8] of the same binder?
**A.** -0.843

**Q.** And the “glycan array binding signal (z-score)” value [9]?
**A.** 0.009

**Q.** What about the “glycan array binding signal (z-score)” value [10] of the same binder?
**A.** -0.332

**Q.** What about the “glycan array binding signal (z-score)” value [11] of the same binder?
**A.** -0.402

**Q.** And the “glycan array binding signal (z-score)” value [12]?
**A.** -0.721

**Q.** And the “glycan array binding signal (z-score)” value [13]?
**A.** 0.538

**Q.** And the “glycan array binding signal (z-score)” value [14]?
**A.** 2.39

**Q.** And the “glycan array binding signal (z-score)” value [15]?
**A.** -0.22

**Q.** What about the “glycan array binding signal (z-score)” value [16] of the same binder?
**A.** 0.578

**Q.** What about the “glycan array binding signal (z-score)” value [17] of the same binder?
**A.** 0.159

**Q.** And the “glycan array binding signal (z-score)” value [18]?
**A.** 2.15
